For the experiment, the target named is BCL2L1/BCLXL (human (endogenous in SH-EP)), Q07817. The experiment in a line: co-IP; endogenous BCLXL precipitated with 1 ug BCLXL antibody covalently coupled to Protein A support from SH-EP lysate (1% IGEPAL buffer, at least 1000 ug lysate, 4 °C, 6 hours); cells untreated or treated with 50 nM MG-2477 for 30 minutes and two hours; immunoblot. Conditions: remark: other sources report otherwise. Background: A western blot detects proteins with antibodies after separation by electrophoresis.

This note sets out measurements from paper PMC5458265.

These are yes or no findings as the source states them, for the method shown. Binding seen in cells or lysates may run through a third protein. Some results given as binding are weak or reduced against the parent protein; the word gives no strength.

B1: PMAIP1/NOXA, Q13794 1-54 (protein)
chain: MPGKKARKNAQPSPARAPAELEVECATQLRRFGDKLNFRQKLLNLISKLFCSGT
Turning to B1, the binding result is listed as “binds”.
